The test system of data set [1] is SNAP649-CST (Homo sapiens). The data set can be described thus: EMSA. Conditions: 50 mM KCl, like native CST, EMSA: 35 mM Tris-HCl pH 7.5, 1 mM DTT, 2.5 mM MgCl2, 100 ng/uL BSA, 37 C, recombinant protein, protein details: SNAP (SNAP-Surface 649 label), label: 5' Cy3, single-stranded DNA.
For data set [2], the system named is CST complex (CTC1-STN1-TEN1) (Homo sapiens). In words: EMSA. Conditions: 50 mM KCl, EMSA: 35 mM Tris-HCl pH 7.5, 1 mM DTT, 2.5 mM MgCl2, 100 ng/uL BSA, 37 C, recombinant protein, protein details: FLAG-CTC1, TEN1-His6, label: 5' Cy3, single-stranded DNA.
The test system of another data set is EGFP-RPA (Homo sapiens). In words: EMSA. Conditions: 50 mM KCl, like native RPA, EMSA: 35 mM Tris-HCl pH 7.5, 1 mM DTT, 2.5 mM MgCl2, 100 ng/uL BSA, 37 C, recombinant protein, protein details: EGFP, label: 5' Cy3, single-stranded DNA.
Data set [3] concerns RPA complex (Homo sapiens). The data set can be described thus: EMSA. Conditions: 50 mM KCl, EMSA: 35 mM Tris-HCl pH 7.5, 1 mM DTT, 2.5 mM MgCl2, 100 ng/uL BSA, 37 C, recombinant protein, label: 5' Cy3, single-stranded DNA. In general terms: Mobility shift assays separate free from complexed probe on a gel.
Data set [4] deals with RAD51 (Homo sapiens) (UniProt Q06609). In words: negative-stain EM. The conditions noted are these: 150 mM KCl, RPA-coated DNA, median filament 67.83 nm; smFRET: 25 mM Tris-HCl pH 7.5, 0.5 mM EDTA, 10% glycerol, 50 or 150 mM KCl (temperature not stated); recombinant protein; single-stranded DNA.
Data set [5] has as its system CST complex (CTC1-STN1-TEN1) (Homo sapiens). In words: pull-down. Conditions: RPA-coated DNA, 150 mM KCl; pull-down: 35 mM Tris-HCl pH 7.5, 10% glycerol, 0.01% Igepal, 1 mM 2-ME, 1 mM ATP, 2.5 mM MgCl2, 50 or 150 mM KCl, 37 C; recombinant protein; protein details: FLAG-CTC1, TEN1-His6; label: 5' biotin, on streptavidin beads; single-stranded DNA.
In the next data set the target is RecA (E. coli) (UniProt P0A7G6). The data set can be described thus: pull-down. The conditions noted are these: RPA-coated DNA plus CST, 50 mM KCl; pull-down: 35 mM Tris-HCl pH 7.5, 10% glycerol, 0.01% Igepal, 1 mM 2-ME, 1 mM ATP, 2.5 mM MgCl2, 50 or 150 mM KCl, 37 C; commercial protein; label: 5' biotin, on streptavidin beads; single-stranded DNA.
Data set [6] deals with RAD51 (Homo sapiens) (UniProt Q06609). In words: pull-down. The conditions noted are these: pull-down: 35 mM Tris-HCl pH 7.5, 10% glycerol, 0.01% Igepal, 1 mM 2-ME, 1 mM ATP, 2.5 mM MgCl2, 50 or 150 mM KCl, 37 C, recombinant protein, label: 5' biotin, on streptavidin beads, single-stranded DNA.
The next data set deals with SSB (E. coli) (UniProt P0AGE0). The data set can be described thus: pull-down. The conditions noted are these: RPA-coated DNA, 50 mM KCl; pull-down: 35 mM Tris-HCl pH 7.5, 10% glycerol, 0.01% Igepal, 1 mM 2-ME, 1 mM ATP, 2.5 mM MgCl2, 50 or 150 mM KCl, 37 C; commercial protein; label: 5' biotin, on streptavidin beads; single-stranded DNA.

Chains of the proteins cited; added tags and fusions are not shown. A change or cut given only in a name is not applied to a line headed by its entry. A line that says so, or that is headed by a name, gives the form on record, which may keep a tag or linker.
UniProt Q06609, whole entry: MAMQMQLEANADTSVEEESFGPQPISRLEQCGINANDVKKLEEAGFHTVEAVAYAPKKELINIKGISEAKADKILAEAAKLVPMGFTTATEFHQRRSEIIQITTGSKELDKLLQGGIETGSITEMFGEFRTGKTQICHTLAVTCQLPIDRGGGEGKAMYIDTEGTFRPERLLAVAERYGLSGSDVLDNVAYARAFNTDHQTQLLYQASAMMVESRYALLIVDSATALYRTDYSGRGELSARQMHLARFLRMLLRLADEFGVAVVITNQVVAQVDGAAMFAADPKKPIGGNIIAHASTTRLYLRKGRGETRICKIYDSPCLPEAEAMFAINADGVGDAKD
UniProt P0A7G6: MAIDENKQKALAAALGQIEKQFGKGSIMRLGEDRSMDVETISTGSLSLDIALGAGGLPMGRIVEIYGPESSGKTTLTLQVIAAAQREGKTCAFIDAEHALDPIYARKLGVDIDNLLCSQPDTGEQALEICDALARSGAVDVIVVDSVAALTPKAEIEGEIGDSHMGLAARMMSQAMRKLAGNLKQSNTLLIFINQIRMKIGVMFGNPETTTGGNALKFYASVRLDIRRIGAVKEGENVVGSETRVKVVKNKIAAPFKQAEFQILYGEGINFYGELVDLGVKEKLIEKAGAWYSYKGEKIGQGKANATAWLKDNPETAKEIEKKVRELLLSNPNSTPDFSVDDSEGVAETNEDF
UniProt P0AGE0: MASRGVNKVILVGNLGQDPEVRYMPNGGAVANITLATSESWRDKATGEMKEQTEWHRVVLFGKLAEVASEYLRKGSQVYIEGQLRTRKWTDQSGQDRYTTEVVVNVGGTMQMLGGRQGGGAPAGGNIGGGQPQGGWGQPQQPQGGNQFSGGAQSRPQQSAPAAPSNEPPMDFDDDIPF
SNAP649-CST (Homo sapiens), one chain, as listed by the source, chain 3 of 3: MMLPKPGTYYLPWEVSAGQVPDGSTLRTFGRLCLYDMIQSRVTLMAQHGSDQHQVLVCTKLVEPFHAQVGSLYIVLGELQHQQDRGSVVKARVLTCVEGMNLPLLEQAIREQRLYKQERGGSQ
EGFP-RPA (Homo sapiens), one chain, as listed by the source, chain 2 of 3: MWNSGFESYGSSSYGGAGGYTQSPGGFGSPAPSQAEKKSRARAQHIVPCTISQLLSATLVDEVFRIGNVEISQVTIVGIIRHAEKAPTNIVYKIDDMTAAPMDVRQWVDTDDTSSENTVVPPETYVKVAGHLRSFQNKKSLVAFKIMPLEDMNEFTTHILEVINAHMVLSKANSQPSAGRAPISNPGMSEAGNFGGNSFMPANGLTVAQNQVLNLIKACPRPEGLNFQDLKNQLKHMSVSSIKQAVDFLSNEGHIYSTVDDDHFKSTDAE
SNAP649-CST (Homo sapiens), one chain, as listed by the source, chain 1 of 3: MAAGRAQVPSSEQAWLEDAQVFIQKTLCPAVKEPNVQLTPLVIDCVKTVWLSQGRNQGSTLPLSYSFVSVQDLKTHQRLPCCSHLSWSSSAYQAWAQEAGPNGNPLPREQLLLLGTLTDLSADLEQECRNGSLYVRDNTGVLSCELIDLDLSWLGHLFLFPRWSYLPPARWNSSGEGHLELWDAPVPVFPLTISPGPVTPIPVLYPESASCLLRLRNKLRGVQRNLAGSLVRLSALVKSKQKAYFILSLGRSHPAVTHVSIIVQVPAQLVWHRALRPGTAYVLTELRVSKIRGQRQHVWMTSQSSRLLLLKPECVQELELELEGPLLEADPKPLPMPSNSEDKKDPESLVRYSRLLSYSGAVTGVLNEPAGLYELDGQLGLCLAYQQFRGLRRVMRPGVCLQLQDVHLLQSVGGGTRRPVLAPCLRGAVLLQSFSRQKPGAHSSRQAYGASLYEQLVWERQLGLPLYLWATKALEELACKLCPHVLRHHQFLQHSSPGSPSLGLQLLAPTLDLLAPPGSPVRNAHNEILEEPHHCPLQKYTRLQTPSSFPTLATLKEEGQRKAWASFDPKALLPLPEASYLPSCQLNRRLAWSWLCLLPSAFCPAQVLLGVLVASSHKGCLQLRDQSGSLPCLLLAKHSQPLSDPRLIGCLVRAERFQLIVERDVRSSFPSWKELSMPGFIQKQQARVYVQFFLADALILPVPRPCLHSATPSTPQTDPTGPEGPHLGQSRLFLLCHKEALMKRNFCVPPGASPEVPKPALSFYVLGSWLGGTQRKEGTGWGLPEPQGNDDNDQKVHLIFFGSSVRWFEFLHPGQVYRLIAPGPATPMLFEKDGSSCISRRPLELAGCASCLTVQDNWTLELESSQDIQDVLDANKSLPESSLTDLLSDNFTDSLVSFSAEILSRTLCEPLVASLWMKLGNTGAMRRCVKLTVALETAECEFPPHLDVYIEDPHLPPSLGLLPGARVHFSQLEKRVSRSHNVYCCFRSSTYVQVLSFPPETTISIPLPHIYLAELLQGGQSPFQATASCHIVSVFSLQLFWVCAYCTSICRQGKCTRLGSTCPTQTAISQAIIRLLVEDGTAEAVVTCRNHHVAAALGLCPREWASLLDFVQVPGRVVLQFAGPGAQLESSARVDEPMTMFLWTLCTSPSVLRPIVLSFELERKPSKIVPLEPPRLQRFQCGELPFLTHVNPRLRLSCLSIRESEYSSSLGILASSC
SNAP649-CST (Homo sapiens), one chain, as listed by the source, chain 2 of 3: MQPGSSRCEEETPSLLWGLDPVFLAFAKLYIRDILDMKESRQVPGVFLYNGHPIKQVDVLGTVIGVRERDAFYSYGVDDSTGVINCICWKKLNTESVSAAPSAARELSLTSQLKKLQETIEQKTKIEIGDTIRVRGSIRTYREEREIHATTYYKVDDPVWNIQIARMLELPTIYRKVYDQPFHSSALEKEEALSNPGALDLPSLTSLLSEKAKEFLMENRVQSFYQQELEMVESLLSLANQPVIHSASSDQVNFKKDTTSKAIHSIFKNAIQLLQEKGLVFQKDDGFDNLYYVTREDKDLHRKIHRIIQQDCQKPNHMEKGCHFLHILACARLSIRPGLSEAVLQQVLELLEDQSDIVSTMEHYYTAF

For some assays here: No signal at the amounts used counts as a negative. For some assays here: Construct, isoform or probe ends are uncertain for at least one entry. For some assays here: A weaker result is weaker than the reference pair of the same experiment. For some assays here: At least one verdict was read from the data and is not stated in words by the source.

For “TTAGAGCTTAATTGCTGAATCTGGTGCTGTGGGTGAACCTGCAGGTGGGCAAAGA [Cy3-Oligo 4 (55 nt)]”, the binding result (in [1]; in [2]; in the data set with EGFP-RPA (Homo sapiens); in [3]) was “binds” throughout.
In the case of “TTATGTTCATTTTTTATATCCTTTACTTTATTTTCTCTGTTTATTCATTTACTTATTTTGTATTATCCTTATCTTATTTA [80-nt ssDNA Oligo 1]”, in the data set with RAD51 (Homo sapiens) [4], the binding result is listed as “binds more weakly”.
Turning to “TTATGTTCATTTTTTATATCCTTTACTTTATTTTCTCTGTTTATTCATTTACTTATTTTGTATTATCCTTATCTTATTTA [80-nt ssDNA, biotinylated Oligo 1]”, the binding result in data set [5] is reported as “no binding”; with RecA (E. coli), “no binding”; in the data set with RAD51 (Homo sapiens) [6] (RPA-coated DNA plus CTC1Δ700N-ST) it was “no binding”; in the data set with RAD51 (Homo sapiens) [6] (RPA-coated DNA, no CST), “no binding”; in the data set with RAD51 (Homo sapiens) [6] (bare DNA (lane 3 vs 7)), “binds”; in the data set with SSB (E. coli) it was “no binding”.

The values are drawn from publication PMC8571288.
